Data as given in patent US20160244491A1.
No constants are given. Whether binding was seen depends on the method and setting. Some results given as binding are weak or reduced against the parent protein; the word gives no strength.

By UniProt entry, the sequences of proteins in these tests, tags left out. Where a name states a change or a piece, a line headed by the entry shows the natural chain unless it says otherwise.
UniProt P06756: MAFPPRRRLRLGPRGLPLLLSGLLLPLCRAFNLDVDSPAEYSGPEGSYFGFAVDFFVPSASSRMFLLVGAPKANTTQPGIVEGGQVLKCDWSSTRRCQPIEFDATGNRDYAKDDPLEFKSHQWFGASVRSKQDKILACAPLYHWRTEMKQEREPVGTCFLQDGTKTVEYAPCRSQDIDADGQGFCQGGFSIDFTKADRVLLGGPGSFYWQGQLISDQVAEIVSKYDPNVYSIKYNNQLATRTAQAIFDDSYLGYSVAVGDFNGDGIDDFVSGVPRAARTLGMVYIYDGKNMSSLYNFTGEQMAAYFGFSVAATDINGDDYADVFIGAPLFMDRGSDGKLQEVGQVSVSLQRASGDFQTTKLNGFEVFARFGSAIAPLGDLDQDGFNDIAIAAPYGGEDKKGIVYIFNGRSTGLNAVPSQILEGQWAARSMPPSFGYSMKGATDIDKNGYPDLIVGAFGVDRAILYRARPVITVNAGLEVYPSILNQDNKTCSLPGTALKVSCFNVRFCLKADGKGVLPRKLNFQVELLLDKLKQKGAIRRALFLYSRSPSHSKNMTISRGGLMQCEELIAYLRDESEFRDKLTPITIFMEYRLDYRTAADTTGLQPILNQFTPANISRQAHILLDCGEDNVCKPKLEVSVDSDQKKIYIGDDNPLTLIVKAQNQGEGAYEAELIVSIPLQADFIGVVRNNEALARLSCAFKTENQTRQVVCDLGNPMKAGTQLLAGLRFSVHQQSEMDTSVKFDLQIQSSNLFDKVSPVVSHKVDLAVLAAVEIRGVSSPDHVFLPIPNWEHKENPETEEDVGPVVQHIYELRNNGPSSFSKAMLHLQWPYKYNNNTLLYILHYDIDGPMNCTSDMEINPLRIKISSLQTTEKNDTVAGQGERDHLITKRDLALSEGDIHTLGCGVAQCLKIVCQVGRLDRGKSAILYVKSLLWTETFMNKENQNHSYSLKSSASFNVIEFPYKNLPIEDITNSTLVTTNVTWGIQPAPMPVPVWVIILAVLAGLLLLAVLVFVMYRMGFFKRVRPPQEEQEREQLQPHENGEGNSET
UniProt P08648: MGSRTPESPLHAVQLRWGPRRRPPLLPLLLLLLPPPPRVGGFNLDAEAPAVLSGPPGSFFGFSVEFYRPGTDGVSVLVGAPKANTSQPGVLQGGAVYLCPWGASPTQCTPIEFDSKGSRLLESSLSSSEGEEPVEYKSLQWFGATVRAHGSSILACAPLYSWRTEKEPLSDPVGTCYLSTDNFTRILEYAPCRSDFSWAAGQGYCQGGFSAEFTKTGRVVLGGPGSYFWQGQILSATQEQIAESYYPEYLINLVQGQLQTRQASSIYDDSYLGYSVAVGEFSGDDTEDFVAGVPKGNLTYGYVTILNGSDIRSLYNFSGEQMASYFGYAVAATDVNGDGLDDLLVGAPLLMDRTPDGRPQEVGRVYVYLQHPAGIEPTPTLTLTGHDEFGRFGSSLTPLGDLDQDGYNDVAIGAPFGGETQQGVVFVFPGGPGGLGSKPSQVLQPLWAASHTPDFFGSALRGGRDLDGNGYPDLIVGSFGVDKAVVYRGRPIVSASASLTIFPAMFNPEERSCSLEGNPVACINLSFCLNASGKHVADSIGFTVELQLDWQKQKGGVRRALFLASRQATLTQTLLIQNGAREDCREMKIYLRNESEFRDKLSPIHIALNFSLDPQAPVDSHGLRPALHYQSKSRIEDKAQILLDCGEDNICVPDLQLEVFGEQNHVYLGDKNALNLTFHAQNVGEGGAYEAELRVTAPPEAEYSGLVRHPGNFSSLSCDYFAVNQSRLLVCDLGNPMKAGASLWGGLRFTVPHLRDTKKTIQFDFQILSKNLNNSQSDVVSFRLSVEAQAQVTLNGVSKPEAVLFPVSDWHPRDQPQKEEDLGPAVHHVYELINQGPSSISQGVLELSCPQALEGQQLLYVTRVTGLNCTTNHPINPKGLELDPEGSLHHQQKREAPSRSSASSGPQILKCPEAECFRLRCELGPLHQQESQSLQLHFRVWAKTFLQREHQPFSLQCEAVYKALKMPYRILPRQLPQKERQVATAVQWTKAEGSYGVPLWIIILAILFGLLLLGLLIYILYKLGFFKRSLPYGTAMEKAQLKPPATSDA

B1: 225-460 K423Q (ligand)
chain: TTPFLQLNEIRNVKHDGIPAECTTIYNRGEHTSGMYAIRPSNSQVFHVYCDVISGSPWTLIQHRIDGSQNFNETWENYKYGFGRLDGEFWLGLEKIYSIVKQSNYVLRIELEDWKDNKHYIEYSFYLGNHETNYTLHLVAITGNVPNAIPENKDLVFSTWDHKAKGHFNCPEGYSGGWWWHDECGENNLNGKYNKPRAQSKPERRRGLSWKSQNGRLYSIKSTKMLIHPTDSESFE
B2: 228-460 K423Q (ligand)
chain: FLQLNEIRNVKHDGIPAECTTIYNRGEHTSGMYAIRPSNSQVFHVYCDVISGSPWTLIQHRIDGSQNFNETWENYKYGFGRLDGEFWLGLEKIYSIVKQSNYVLRIELEDWKDNKHYIEYSFYLGNHETNYTLHLVAITGNVPNAIPENKDLVFSTWDHKAKGHFNCPEGYSGGWWWHDECGENNLNGKYNKPRAQSKPERRRGLSWKSQNGRLYSIKSTKMLIHPTDSESFE
B3: 233-460 K423Q (ligand)
chain: EIRNVKHDGIPAECTTIYNRGEHTSGMYAIRPSNSQVFHVYCDVISGSPWTLIQHRIDGSQNFNETWENYKYGFGRLDGEFWLGLEKIYSIVKQSNYVLRIELEDWKDNKHYIEYSFYLGNHETNYTLHLVAITGNVPNAIPENKDLVFSTWDHKAKGHFNCPEGYSGGWWWHDECGENNLNGKYNKPRAQSKPERRRGLSWKSQNGRLYSIKSTKMLIHPTDSESFE
B4: 241-460 K423Q (ligand)
chain: GIPAECTTIYNRGEHTSGMYAIRPSNSQVFHVYCDVISGSPWTLIQHRIDGSQNFNETWENYKYGFGRLDGEFWLGLEKIYSIVKQSNYVLRIELEDWKDNKHYIEYSFYLGNHETNYTLHLVAITGNVPNAIPENKDLVFSTWDHKAKGHFNCPEGYSGGWWWHDECGENNLNGKYNKPRAQSKPERRRGLSWKSQNGRLYSIKSTKMLIHPTDSESFE
B5: 242-460 K423Q (ligand)
chain: IPAECTTIYNRGEHTSGMYAIRPSNSQVFHVYCDVISGSPWTLIQHRIDGSQNFNETWENYKYGFGRLDGEFWLGLEKIYSIVKQSNYVLRIELEDWKDNKHYIEYSFYLGNHETNYTLHLVAITGNVPNAIPENKDLVFSTWDHKAKGHFNCPEGYSGGWWWHDECGENNLNGKYNKPRAQSKPERRRGLSWKSQNGRLYSIKSTKMLIHPTDSESFE

target: Integrin αVβ3 (UniProt P06756); assay: ELISA on coated integrin αVβ3

binding, binds:
B1
B2
B3
B4
B5

target: Integrin α5β1 (UniProt P08648); assay: ELISA on coated integrin α5β1

binding, binds:
B1
B2
B3
B4
B5
